From publication PMC7277541, “Antimicrobial and Antifungal Activities of Terpene-Derived Palladium Complexes” (Antibiotics, 2020)
Values after ≈ are worked out from the molar mass of the structure shown.

System: S. aureus (MRSA) ATCC 43300
Test: Antibacterial MIC assay, S. aureus (MRSA)
Type: cell-based
Settings: Staphylococcus aureus, 18 h, read-out: Minimum inhibitory concentration (MIC) S. aureus ATCC 43300
Experimental: Dry compounds were dissolved in dimethyl sulfoxide (DMSO), and serially diluted 2-fold to produce an 8-point dose response with DMSO/water and then added into microtiter plates with a final DMSO concentration of 0.5%, providing a concentration range of 0.25 to 32 μg/mL. Screening against bacteria and yeasts for antimicrobial activity and toxicity against mammalian cells was performed in duplicate (n = 2).
For the bacterial assays, each bacterial strain was cultured in Cation-Adjusted Mueller Hinton Broth (CAMHB; Bacto Laboratories 212322) at 37 °C overnight. Bacterial strains tested were methicillin resistant S. aureus (methicillin-resistant Staphylococcus aureus - MRSA) ATCC 43300, E. coli ATCC 25922, K. pneumoniae K6/ESBL ATCC 700603, P. aeruginosa ATCC 27853, A. baumannii ATCC 19606. A sample of each culture was then diluted 40-fold in fresh CAMHB and incubated at 37 °C for 1.5–3 h. The resultant mid-log phase cultures were diluted with CAMHB (CFU/mL measured by OD600), then added to each well of the compound-containing plates (384-well non-binding surface (NBS) plates; Corning CLS3640), giving a final cell density of 5 × 10^5 CFU/mL and a total volume of 50 μL. […] Inhibition of bacterial growth was determined by measuring absorbance at 600 nm (OD600), using media only as negative control and bacteria without inhibitors as positive control. […]

Work on `CN[C@H](CC(C)C)C(=O)N[C@H]1C(=O)N[C@@H](CC(N)=O)C(=O)N[C@H]2C(=O)N[C@H]3C(=O)N[C@H](C(=O)N[C@H](C(=O)O)c4cc(O)cc(O)c4-c4cc3ccc4O)[C@H](O)c3ccc(c(Cl)c3)Oc3cc2cc(c3O[C@@H]2O[C@H](CO)[C@@H](O)[C@H](O)[C@H]2O[C@H]2C[C@](C)(N)[C@H](O)[C@H](C)O2)Oc2ccc(cc2Cl)[C@H]1O` [vancomycin, reference compound] yielded an MIC of 1 µg/mL (≈ 0.69 µM).
